Laboratory results from paper doi:10.1101/2025.07.31.667081.
Results are given in words; binding and its absence hold for the method and conditions named. Some entries that bind do so weakly or less than the wild type.

Molecular target: D1/D2 core of wild-type human NVL (residues 254-857) (human) (UniProt O15381)
Test: cryo-EM micrographs

B1: D1/D2 core of wild-type human NVL (residues 254-857) (domain or fragment, UniProt O15381-1 254-856)
chain: GLEFQISNVKFEDVGGNDMTLKEVCKMLIHMRHPEVYHHLGVVPPRGVLLHGPPGCGKTLLAHAIAGELDLPILKVAAPEIVSGVSGESEQKLRELFEQAVSNAPCIIFIDEIDAITPKREVASKDMERRIVAQLLTCMDDLNNVAATARVLVIGATNRPDSLDPALRRAGRFDREICLGIPDEASRERILQTLCRKLRLPQAFDFCHLAHLTPGFVGADLMALCREAAMCAVNRVLMKLQEQQKKNPEMEDLPSKGVQEERLGTEPTSETQDELQRLLGLLRDQDPLSEEQMQGLCIELNDFIVALSSVQPSAKREGFVTVPNVTWADIGALEDIREELTMAILAPVRNPDQFKALGLVTPAGVLLAGPPGCGKTLLAKAVANESGLNFISVKGPELLNMYVGESERAVRQVFQRAKNSAPCVIFFDEVDALCPRRSDRETGASVRVVNQLLTEMDGLEARQQVFIMAATNRPDIIDPAILRPGRLDKTLFVGLPPPADRLAILKTITKNGTKPPLDADVNLEAIAGDLRCDCYTGADLSALVREASICALRQEMARQKSGNEKGELKVSHKHFEEAFKKVRSSISKKDQIMYERLQESLSR
- binding: binds
